Counter-ions that a name gives are not always drawn. Like-named read-outs stand apart in the source and are kept apart here. Among all 3,300 compounds or so, about 60 (2%) showed an effect of 50% or more. The list shows a part of the results.
System: HCoV-OC43
Design: species or system RD; HTS, protection from HCoV-OC43 induced cell death, luminescent cell viability (CellCounting-Lite 2.0), inhibition rate
Conditions: 24 h post infection, 1 h compound pre-incubation, 10 µM, inhibitor

Structure (SMILES) | OC43 Inhibition rate [%] | OC43 Inhibition rate (OC43 Inhibition rate, 24 h) [%]
O=C1CCC[C@@H]2[C@H]3CCCN4CCC[C@@H](CN12)[C@@H]34 [Matrine] | -0.1 | –
CCCCCC1C(=O)CCC1CC(=O)OC (stereo not drawn) [Methyl dihydrojasmonate] | 0.1 | –
COC(=O)[C@H]1O[C@@H](O[C@H]2CC[C@]3(C)[C@H]4CC=C5[C@@H]6CC(C)(C)CC[C@]6(C(=O)O)CC[C@@]5(C)[C@]4(C)CC[C@H]3[C@]2(C)C=O)[C@H](O)[C@@H](O)[C@@H]1O [Gypsogenin-3-O-glucuronide] | -0.6 | –
CC(=O)N[C@@H](CC(C)C)C(=O)N[C@@H](CC(C)C)C(=O)N[C@H](C=O)CCCNC(=N)N [Leupeptin (hemisulfate)] | 23.3 | –
C[C@@H]1O[C@@H](O[C@H]2[C@H](O[C@H]3[C@H](O[C@H]4CC[C@]5(C)[C@H]6CC=C7[C@@H]8CC(C)(C)CC[C@]8(C(=O)O)CC[C@@]7(C)[C@]6(C)CC[C@H]5C4(C)C)OC[C@H](O)[C@@H]3O)O[C@H](CO)[C@@H](O)[C@@H]2O)[C@H](O)[C@H](O)[C@H]1O [Raddeanin A] | -7.3 | –
C[C@@H]1O[C@@H](O[C@H]2[C@H](O)[C@@H](O)[C@H](OC[C@H]3O[C@@H](OC(=O)[C@]45CCC(C)(C)C[C@H]4C4=CC[C@@H]6[C@@]7(C)CC[C@H](O[C@@H]8OC[C@H](O)[C@H](O)[C@H]8O)[C@@](C)(CO)[C@@H]7CC[C@@]6(C)[C@]4(C)CC5)[C@H](O)[C@@H](O)[C@@H]3O)O[C@@H]2CO)[C@H](O)[C@H](O)[C@H]1O [Cauloside D] | – | -0.4
CC(C)=CCC[C@](C)(O)[C@H]1CC[C@]2(C)[C@@H]1[C@H](O)C[C@@H]1[C@@]3(C)CC[C@H](O[C@@H]4O[C@H](CO)[C@@H](O)[C@H](O)[C@H]4O[C@@H]4O[C@H](CO)[C@@H](O)[C@H](O)[C@H]4O)C(C)(C)[C@@H]3CC[C@]12C [20(S)-Ginsenoside Rg3] | 7.6 | –
OCCc1c[nH]c2ccc(O)cc12 [5-Hydroxytryptophol] | 2 | –
COc1ccc(C2COc3cc(O[C@@H]4O[C@H](CO)[C@@H](O)[C@H](O)[C@H]4O)ccc3C2)c(O)c1OC (stereo partly drawn) [Isomucronulatol 7-O-glucoside] | 11.3 | –
O=c1cc(-c2ccc(O)cc2)oc2cc(O[C@@H]3O[C@H](CO)[C@@H](O)[C@H](O)[C@H]3O[C@@H]3OC[C@](O)(CO)[C@H]3O)cc(O)c12 [Apiin] | -0.4 | –
C=C1[C@@H]2CC[C@@H]3[C@](C2)(C(=O)[C@@H](O)[C@@H]2C(C)(C)[C@H]4CC(=O)[C@@]32CO4)[C@@H]1OC(C)=O [Maoecrystal A] | -0.4 | –
C=C1C(=O)O[C@H]2[C@H]1CC[C@]1(C)O[C@@]13CC[C@@](C)(O)[C@H]23 [Epoxymicheliolide] | 0.1 | –
CN(C)[C@@H]1C(O)=C(C(N)=O)C(=O)[C@@]2(O)C(O)=C3C(=O)c4c(O)cccc4[C@@](C)(O)[C@H]3C[C@@H]12 [Tetracycline (hydrochloride)] | 41.7 | –
C[C@H](CCC(=O)O)[C@H]1CC[C@H]2[C@@H]3CC[C@@H]4C[C@H](O)CC[C@]4(C)[C@H]3C[C@H](O)[C@]12C [Deoxycholic acid sodium salt] | – | 1.2
O=C(O)CCCCCCC[C@@H](O)[C@@H](O)CCCCCCO [Aleuritic acid] | 0.2 | –
OC1OC[C@@H](O)[C@@H](O)[C@@H]1O (stereo partly drawn) [D-Arabinose] | – | -0.1
C[C@]12CCC(=O)C=C1CC[C@@H]1[C@@H]2C(=O)C[C@@]2(C)[C@H]1CC[C@]2(O)C(=O)CO [Cortisone] | 0.8 | –

Structure (SMILES) | OC43 Inhibition rate [%] | OC43 Inhibition rate (OC43 Inhibition rate, 24 h) [%]
CC/C=C\C/C=C\C/C=C\C/C=C\C/C=C\CCCC(=O)O [Eicosapentaenoic Acid] | 5.6 | –
CC(=O)[C@]1(O)Cc2c(O)c3c(c(O)c2[C@@H](O[C@H]2C[C@H](N)[C@H](O)[C@H](C)O2)C1)C(=O)c1c(O)cccc1C3=O [Carubicin (hydrochloride)] | -5.3 | –
N[C@H](CC(=O)O)C(=O)O [(-)-Aspartic acid] | -6.5 | –
COc1cc2oc3cc(O)c(OC)c(CC=C(C)C)c3c(=O)c2c(O)c1CC=C(C)C [beta-Mangostin] | -0.3 | –
COc1cc(O)c2c(=O)cc(-c3ccc(OC)c(-c4c(O)cc(O)c5c(=O)cc(-c6ccc(O)cc6)oc45)c3)oc2c1 [Ginkgetin] | -5.8 | –
COc1cc2c(cc1OC)-c1c(C)c3ccc(OC)c(OC)c3c[n+]1CC2 [Dehydrocorydaline (nitrate)] | – | 0
CC(C)=CCc1cc2ccc(=O)oc2cc1O [Demethylsuberosin] | -0.9 | –
C/C=C1/CN2[C@H]3Cc4c([nH]c5ccccc45)[C@]2(O)C[C@@H]1[C@@]3(CO)C(=O)OC [16-Epivoacarpine] | 0.3 | –
Cc1cccs1 [2-Methylthiophene] | 0.7 | –
O=C(O)C(O)Cc1cc2ccccc2[nH]1 (stereo not drawn) [Indolelactic acid] | 4.1 | –
NC(=O)c1ccccc1O [Salicylamide] | -0.2 | –
OCC1=C[C@H](N[C@H]2C[C@H](CO)[C@@H](O[C@@H]3O[C@H](CO)[C@@H](O)[C@H](O)[C@H]3O)[C@H](O)[C@H]2O)[C@H](O)[C@@H](O)[C@@H]1O [Validamycin A] | 2.9 | –
CC1(C)CC[C@]2(C(=O)O)CC[C@]3(C)C(=CC[C@@H]4[C@@]5(C)CCC(=O)C(C)(C)[C@@H]5CC[C@]43C)[C@@H]2C1 [Oleanonic acid] | 20 | –
CC(C)N(CCCCOCC(=O)O)c1cnc(-c2ccccc2)c(-c2ccccc2)n1 [MRE-269] | 41.2 | –
C[C@]12CC[C@H](O)C[C@H]1CC[C@@H]1[C@@H]2C[C@@H](O)[C@]2(C)[C@@H](C3=CC(=O)OC3)CC[C@]12O [Digoxigenin] | 10.9 | –
COc1ccc(-c2coc3cc(O)ccc3c2=O)cc1 [Formononetin] | 0.5 | –

Record cards, from the list above. Order of values: OC43 Inhibition rate [%]	OC43 Inhibition rate (OC43 Inhibition rate, 24 h) [%]
N[C@H](CC(=O)O)C(=O)O [(-)-Aspartic acid] as listed: -6.5	–
COc1cc(O)c2c(=O)cc(-c3ccc(OC)c(-c4c(O)cc(O)c5c(=O)cc(-c6ccc(O)cc6)oc45)c3)oc2c1 [Ginkgetin] as listed: -5.8	–
